Laboratory results as given in publication PMC9065117.
No constants are given. Whether binding was seen depends on the method and setting. In cells and extracts the contact can be indirect. Some results given as binding are weak or reduced against the parent protein; the word gives no strength.

Amino acid sequences for entries named in this document (tags omitted).
UniProt P46527: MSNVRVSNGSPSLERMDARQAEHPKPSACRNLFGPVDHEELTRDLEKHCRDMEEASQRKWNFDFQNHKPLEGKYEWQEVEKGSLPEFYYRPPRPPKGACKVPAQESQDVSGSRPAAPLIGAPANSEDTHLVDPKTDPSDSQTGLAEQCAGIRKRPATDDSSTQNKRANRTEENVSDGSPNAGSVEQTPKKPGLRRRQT

Assays:
[1] = molecular target: T1, stathmin (human (endogenous in MDA-MB-231)) (UniProt P16949); experiment: proximity ligation; in situ Duolink PLA in fixed (4% PFA), permeabilised MDA-MB-231 cells with anti-stathmin and anti-p27 antibodies; cells transfected with siCTRL or siHMGA1 for 72 h
T1 sequence: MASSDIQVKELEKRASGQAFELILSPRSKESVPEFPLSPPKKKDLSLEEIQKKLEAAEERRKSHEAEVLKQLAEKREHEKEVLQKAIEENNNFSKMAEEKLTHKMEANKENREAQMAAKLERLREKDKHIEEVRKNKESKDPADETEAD

[2] = molecular target: T1, stathmin (human (endogenous in MDA-MB-231)); experiment: co-IP; 0.7-1 mg total MDA-MB-231 extract (RIPA lysis) incubated with anti-stathmin or non-specific IgG antibody in HNTG buffer (20 mM HEPES, 150 mM NaCl, 10% glycerol, 0.1% Triton X-100) overnight at 4 °C, protein A or G Sepharose; western blot; cells transfected with siCTRL or siHMGA1

binding [1]: binds | binding [2]: binds
Substance: cyclin-dependent kinase inhibitor p27^kip1 (from UniProt P46527 1-198)
